{"source": "paper PMC7862700", "note": "The list shows a part of the results, in another mix than the full data. At the low end of the ranking the order means little.", "data": [{"target": "T1, ELF5 (UniProt Q9UKW6-2)", "T1 sequence": "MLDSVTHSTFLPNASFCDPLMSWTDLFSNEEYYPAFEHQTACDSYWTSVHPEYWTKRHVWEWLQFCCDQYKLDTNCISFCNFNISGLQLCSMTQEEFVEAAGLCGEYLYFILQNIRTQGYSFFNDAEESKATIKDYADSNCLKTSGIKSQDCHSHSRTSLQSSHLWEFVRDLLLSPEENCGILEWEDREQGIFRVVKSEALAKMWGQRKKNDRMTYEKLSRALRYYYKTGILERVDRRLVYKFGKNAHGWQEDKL", "test": "DAPPL (digital affinity profiling via proximity ligation, sequencing)", "conditions": "10 mM Tris-HCl pH 7.5, 50 mM NaCl, 1 mM DTT, 4% glycerol, room temperature, 30 min; GST-TFs on glutathione beads, 16-mer random dsDNA library, 0.1% …; high values mean tight binding; double strand, one strand shown; scale: fold enrichment (6-mer frequency, TF over GST control)", "values": [{"sequence": "AAACCC", "binding signal": 1.31}, {"sequence": "TTCAGC", "binding signal": 1.16}, {"sequence": "ATGGGT", "binding signal": 1.34}, {"sequence": "AAATTC", "binding signal": 1.4}, {"sequence": "TACCTC", "binding signal": 1.29}, {"sequence": "TTTGCG", "binding signal": 1.16}, {"sequence": "GATCTC", "binding signal": 1.21}, {"sequence": "TTAACG", "binding signal": 1.14}, {"sequence": "ATCCAA", "binding signal": 1.11}, {"sequence": "CCGCTA", "binding signal": 1.41}, {"sequence": "TCCCTT", "binding signal": 1.72}, {"sequence": "AACTTA", "binding signal": 1.25}, {"sequence": "ATCGTC", "binding signal": 1.07}, {"sequence": "TCGCCT", "binding signal": 1.33}, {"sequence": "ACCATA", "binding signal": 1.15}, {"sequence": "CGACTT", "binding signal": 1.72}, {"sequence": "CCCACG", "binding signal": 1.15}, {"sequence": "ATAGTA", "binding signal": 1.13}, {"sequence": "CTAACG", "binding signal": 1.12}, {"sequence": "TCTTGA", "binding signal": 1.3}, {"sequence": "GGCCTA", "binding signal": 1.13}, {"sequence": "ACTCTT", "binding signal": 1.34}, {"sequence": "CGAAAA", "binding signal": 0.995}, {"sequence": "TACGTT", "binding signal": 1.27}, {"sequence": "AACTGC", "binding signal": 1.36}, {"sequence": "ATGACT", "binding signal": 1.32}, {"sequence": "TGCGAT", "binding signal": 1.11}, {"sequence": "TCCCAC", "binding signal": 1.47}, {"sequence": "TTGCTA", "binding signal": 1.21}, {"sequence": "GAATTT", "binding signal": 1.3}, {"sequence": "CTGTTA", "binding signal": 1.37}, {"sequence": "CGAGCT", "binding signal": 0.958}, {"sequence": "TGACTT", "binding signal": 1.56}, {"sequence": "CCTGAT", "binding signal": 1.64}, {"sequence": "ATTCCC", "binding signal": 1.5}, {"sequence": "GGCTAG", "binding signal": 0.998}, {"sequence": "AAAGCG", "binding signal": 1.07}, {"sequence": "CTAAAA", "binding signal": 1.11}, {"sequence": "TAGTCC", "binding signal": 1.06}, {"sequence": "TACTGA", "binding signal": 0.961}]}]}
